{
  "source": "patent US6521797B1",
  "about": "“Oxime carboxylic acid derivative precursors” (Givaudan AG, priority 1998, dated 2003)",
  "system": "lipase-containing detergent",
  "experiment": "Washing of test cloth with lipase-containing detergent plus precursor, headspace analysis of wet and dry laundry",
  "data": [
    {"smiles": "CCCCCCCC(=O)ON=C(C)C1CC2C=CC1C2", "note": "(centres unmarked) [Example 1(a), octanoic acid 1-bicyclo-[2.2.1]hept-5-en-2-yl-ethanone oxime ester]", "values": [
      {"measurement": "Fragrance level compared to test cloth washed with detergent containing an equivalent amount of the fragrance", "setting": "lipase-containing detergent", "result": "higher"},
      {"measurement": "Headspace analysis of the wet and dry laundry: decomposition product (fragrance)", "setting": "lipase-containing detergent with precursor added", "result": "presence of the decomposition product 1-bicyclo [2.2.1]hept-5-en-2-yl-ethanone oxime"}
    ]}
  ]
}
